Results deposited as PubChem BioAssay AID504793 (Drosophila RNAi Screening Center, 2011)

Assay: 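Whole-genome screen for parts of the DNA damage checkpoint at G2/M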 (primary screen)
System: Drosophila S2R+ cells
Reagents: long dsRNA against Drosophila genes, about 0.25 µg dsRNA per well
Timing: 4 days of dsRNA, then 4 hours of drug before read-out
Conditions: doxorubicin 0.5 µM for 4 hours to cause double-strand breaks, in cells also given a low, harmless dose of dsRNA against nbs to sensitise the assay
Measured: 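Per-well count of mitotic cells stained for phospho-histone H3 after doxorubicin exposure, used as mitotic index; counts are raw and not normalised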
Direction: mitotic cells: higher = more cells in mitosis, weaker G2 arrest
Hit rule: 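a call needs confirmation in secondary tests, with other dsRNAs and a check of mitotic timing without damage, not just a high primary count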
Meaning of the calls: active = confirmed in follow-up tests; inactive = not confirmed
The screen tested about 23,000 reagents; shown is an unselected part of those with a known target gene and a result. Of all reagents, 62 (0.27%) got an active call. 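Calls come from follow-up tests whose scores are not deposited, so confirmed genes may have low counts here; counts are not normalised per plate.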 The raw values are shown without normalisation. Entries without a mark were called inactive.

GstD10 (GeneID 59240) [DRSC15346]
- mitotic cells, replicate 1: 3

GstD10 (GeneID 59240) [DRSC25140]
- mitotic cells, replicate 1: 4

shv (GeneID 33220) [DRSC00640]
- mitotic cells, replicate 1: 6

shv (GeneID 33220) [DRSC22122]
- mitotic cells, replicate 1: 7

shv (GeneID 33220) [DRSC26482]
- mitotic cells, replicate 1: 4

shv (GeneID 33220) [DRSC26483]
- mitotic cells, replicate 1: 4

IRSp53 (GeneID 39258) [DRSC10891]
- mitotic cells, replicate 1: 6

Dis3l2 (GeneID 38034) [DRSC08496]
- mitotic cells, replicate 1: 6

Cyp4c3 (GeneID 43663) [DRSC16631]
- mitotic cells, replicate 1: 9

Cyp4c3 (GeneID 43663) [DRSC23642]
- mitotic cells, replicate 1: 6

CG3368 (GeneID 43292) [DRSC15485]
- mitotic cells, replicate 1: 9

spg (GeneID 43404) [DRSC14373]
- mitotic cells, replicate 1: 11

spg (GeneID 43404) [DRSC14881]
- mitotic cells, replicate 1: 14

CG7903 (GeneID 43554) [DRSC16338]
- mitotic cells, replicate 1: 17

CG7903 (GeneID 43554) [DRSC29953]
- mitotic cells, replicate 1: 5

Hira (GeneID 31680) [DRSC18672]
- mitotic cells, replicate 1: 18

Dyro (GeneID 39271) [DRSC10598]
- mitotic cells, replicate 1: 3

Dyro (GeneID 39271) [DRSC25276]
- mitotic cells, replicate 1: 4

A portion from the list above, as a working copy:
Cyp4c3 (GeneID 43663) [DRSC23642]
- mitotic cells, replicate 1: 6

CG3368 (GeneID 43292) [DRSC15485]
- mitotic cells, replicate 1: 9

spg (GeneID 43404) [DRSC14373]
- mitotic cells, replicate 1: 11

The list goes on.
clt (GeneID 117300) [DRSC04621]
- mitotic cells, replicate 1: 5

CG9628 (GeneID 39593) [DRSC11082]
- mitotic cells, replicate 1: 7

CG9628 (GeneID 39593) [DRSC26359]
- mitotic cells, replicate 1: 5

CG12391 (GeneID 36170) [DRSC06147]
- mitotic cells, replicate 1: 4

Usp10 (GeneID 38103) [DRSC08282]
- mitotic cells, replicate 1: 4

Usp10 (GeneID 38103) [DRSC08373]
- mitotic cells, replicate 1: 9

dmrt99B (GeneID 43495) [DRSC22977]
- mitotic cells, replicate 1: 18

dmrt99B (GeneID 43495) [DRSC25777]
- mitotic cells, replicate 1: 5

AstCC (GeneID 34538) [DRSC02404]
- mitotic cells, replicate 1: 5

CG4115 (GeneID 41499) [DRSC15545]
- mitotic cells, replicate 1: 4

CG14147 (GeneID 39227) [DRSC10149]
- mitotic cells, replicate 1: 7

Dci (GeneID 38100) [DRSC08360]
- mitotic cells, replicate 1: 13

Dci (GeneID 38100) [DRSC28929]
- mitotic cells, replicate 1: 5

Ccm3 (GeneID 41876) [DRSC15711]
- mitotic cells, replicate 1: 7

Dark (GeneID 36914) [DRSC05922]
- mitotic cells, replicate 1: 5

Dark (GeneID 36914) [DRSC27800]
- mitotic cells, replicate 1: 4
